This note sets out measurements from the supplement of paper PMC10735217.

This assay deals with HEK293A TEAD-LUC reporter. As to the kind of experiment: TEAD-luciferase reporter activity (YAP activation), robust Z score vs plate; higher = stronger YAP/TEAD activation. Particulars: 24 h. (A reporter such as luciferase makes a cellular process visible.)

SMILES strings stand for the structures. This is one part of the list. This data set is noisy: repeats of one test often differ as much as different tests do.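 The human kidney-derived cells carry a stably integrated construct of eight TEAD-binding elements driving luciferase, read by luminescence in a drug-repurposing library screen. A compound counts as a hit when its signal is more than five robust Z scores above the plate mean.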

Consider `Cc1onc(-c2ccc(F)cc2)c1COc1ccc(C(=O)N2CCS(=O)(=O)CC2)cn1` [Basmisanil], for which the TEAD-luciferase reporter activity is inactive: -0.827 (compound concentration: 200 nM), inactive: 0.884 (compound concentration: 2 uM) and active: 11.1 (compound concentration: 10 uM).
Take `COc1ccccc1C(=O)N1CCC(N2CCCC2=O)CC1`: the TEAD-luciferase reporter activity runs as follows: (compound concentration: 200 nM) inactive: -0.352; (compound concentration: 10 uM) inactive: 0.118.
Take `O=C1c2ccccc2C(=O)C1c1ccc(Cl)cc1`: the TEAD-luciferase reporter activity (compound concentration: 200 nM) is inactive: -0.669, the TEAD-luciferase reporter activity (compound concentration: 2 uM) was inactive: -0.21 and the TEAD-luciferase reporter activity (compound concentration: 10 uM) is inactive: 0.249.
As to `O=C1CCCC(=O)C1C(=O)c1ccc(C(F)(F)F)cc1[N+](=O)[O-]` [nitisi], the TEAD-luciferase reporter activity is, setting by setting: (compound concentration: 200 nM) inactive: -1.41; (compound concentration: 2 uM) inactive: -1.38; (compound concentration: 10 uM) inactive: 1.16.
In the case of `c1ccc(C(CCN2CCCCC2)c2ccccc2)cc1`, the TEAD-luciferase reporter activity was inactive: 1.28 (compound concentration: 200 nM), inactive: 1.09 (compound concentration: 2 uM) and inactive: 0.247 (compound concentration: 10 uM).
In the case of `CC1(C)CCC2=C(O1)c1ccccc1C(=O)C2=O` [beta-Lapachone], the TEAD-luciferase reporter activity (compound concentration: 200 nM) was inactive: -0.048, the TEAD-luciferase reporter activity (compound concentration: 2 uM) is inactive: -0.943 and the TEAD-luciferase reporter activity (compound concentration: 10 uM) is inactive: -0.166.
Take `CS(=O)(=O)c1ccc(-c2cc(C#N)nn2-c2ccc(F)cc2)cc1`: the TEAD-luciferase reporter activity by setting is: (compound concentration: 200 nM) inactive: -0.261; (compound concentration: 2 uM) inactive: -2.46; (compound concentration: 10 uM) inactive: -1.48.
For `COc1cc(OC)cc(N(CCNC(C)C)c2ccc3ncc(-c4cnn(C)c4)nc3c2)c1` [Erdafitinib], the TEAD-luciferase reporter activity reads like this: (compound concentration: 200 nM) inactive: -1.22; (compound concentration: 2 uM) inactive: -0.831; (compound concentration: 10 uM) inactive: -1.24.
For `CN1CCOC(c2ccccc2)c2ccccc2C1` (stereo not given) [nefopam], the TEAD-luciferase reporter activity by setting is: (compound concentration: 200 nM) inactive: -0.716; (compound concentration: 2 uM) inactive: -0.588; (compound concentration: 10 uM) inactive: 0.518.
Turning to `O=C(/C=C\n1cnc(-c2cc(C(F)(F)F)cc(C(F)(F)F)c2)n1)NNc1cnccn1` [Selinexor], the TEAD-luciferase reporter activity reads like this: (compound concentration: 200 nM) active: 5.68; (compound concentration: 10 uM) inactive: 0.533.
For `C[C@@H](c1nc(-c2ccc(C#N)cc2)cs1)C(O)(Cn1cncn1)c1ccc(F)cc1F` (stereo not given in full) [Ravuconazole], the TEAD-luciferase reporter activity was inactive: -1.11 (compound concentration: 200 nM), inactive: 0.289 (compound concentration: 2 uM) and inactive: -1.19 (compound concentration: 10 uM).
Turning to `O=C(NCCO[N+](=O)[O-])c1cccnc1`, the TEAD-luciferase reporter activity by setting is: (compound concentration: 200 nM) inactive: -1.39; (compound concentration: 10 uM) inactive: 0.0933.
As to `O=C(NCCO[N+](=O)[O-])c1cccnc1` [nicorandil], the TEAD-luciferase reporter activity (compound concentration: 2 uM) was inactive: -1.99.
As to `CCn1c(-c2c(Cl)cc(O)cc2Cl)cc2c(Cl)cc(O)cc21`, the TEAD-luciferase reporter activity was inactive: -1.66 (compound concentration: 200 nM), inactive: 2.49 (compound concentration: 2 uM) and active: 5.03 (compound concentration: 10 uM).
Turning to `Cc1cc(COc2ccc([C@]3(N)CCN([C@H](CC(C)C)C(=O)NO)C3=O)cc2)c2ccccc2n1`, the TEAD-luciferase reporter activity is, setting by setting: (compound concentration: 200 nM) inactive: 2.64; (compound concentration: 2 uM) inactive: -0.161; (compound concentration: 10 uM) inactive: -0.286.
Regarding `CNC(=O)c1cnc2n1CCc1ccccc1C21CCNCC1`, the TEAD-luciferase reporter activity reads like this: (compound concentration: 200 nM) inactive: -1.05; (compound concentration: 2 uM) inactive: -0.227; (compound concentration: 10 uM) inactive: 0.0557.
Take `CC(C)Cc1ccc([C@@H](C)C(=O)NS(C)(=O)=O)cc1` [Reparixin]: the TEAD-luciferase reporter activity is inactive: -0.53 (compound concentration: 200 nM), inactive: 0.5 (compound concentration: 2 uM) and inactive: 0.454 (compound concentration: 10 uM).
As for `Cc1ccc2c(c1)C(OC1CCN(C)CC1)c1ccccc1CS2` (stereo not given), the TEAD-luciferase reporter activity reads like this: (compound concentration: 200 nM) inactive: -1.13; (compound concentration: 2 uM) inactive: -0.553; (compound concentration: 10 uM) inactive: 0.0911.
On to `CCCCC1=NC2(CCCC2)C(=O)N1Cc1ccc(-c2ccccc2-c2nnn[nH]2)cc1` [diabetic nephropathy therapy, Dimerix], for which, for the setting “compound concentration: 2 uM”, the TEAD-luciferase reporter activity is inactive: -0.0521.
`CCCCC1=NC2(CCCC2)C(=O)N1Cc1ccc(-c2ccccc2-c2nnn[nH]2)cc1` [Irbesartan]: the TEAD-luciferase reporter activity is inactive: -1.13 (compound concentration: 200 nM) and inactive: -0.0231 (compound concentration: 10 uM).
Take `CCC(=O)O[C@]1(C(=O)SCCl)[C@H](C)C[C@H]2C3C[C@H](F)C4=CC(=O)C=CC4(C)[C@@]3(F)[C@@H](O)CC21C` (stereo not given in full): the TEAD-luciferase reporter activity is, setting by setting: (compound concentration: 200 nM) inactive: -0.64; (compound concentration: 2 uM) inactive: 1.11; (compound concentration: 10 uM) inactive: 2.66.
The like results for `N#Cc1ccc2[nH]c(O)c(-c3ccc(CN4CCOCC4)cn3)c2c1` were, in that order, inactive: -1.52, inactive: -1.31 and inactive: -1.7.
Regarding `COc1cc(F)cc2c1-c1ccc(F)cc1C21NC(=O)NC1=O` (stereo not given), the TEAD-luciferase reporter activity is, setting by setting: (compound concentration: 200 nM) inactive: -0.981; (compound concentration: 2 uM) inactive: -0.769; (compound concentration: 10 uM) inactive: -0.324.
Take `NC1(c2ccc(-c3nc4ccn5c(=O)[nH]nc5c4cc3-c3ccccc3)cc2)CCC1`: the TEAD-luciferase reporter activity is, setting by setting: (compound concentration: 200 nM) inactive: -0.689; (compound concentration: 2 uM) inactive: 2.35; (compound concentration: 10 uM) inactive: 2.38.
In the case of `O=C(C1CCCC1)N1CCC(C(=O)N2CCC(c3ccccc3)CC2)CC1`, the TEAD-luciferase reporter activity by setting is: (compound concentration: 200 nM) inactive: 2.45; (compound concentration: 10 uM) inactive: -0.752.
As to `OC(CCCN1CCC(O)(c2ccc(Cl)cc2)CC1)c1ccc(F)cc1` (stereo not given), the TEAD-luciferase reporter activity (compound concentration: 200 nM) is inactive: -0.575, the TEAD-luciferase reporter activity (compound concentration: 2 uM) is inactive: 0.672 and the TEAD-luciferase reporter activity (compound concentration: 10 uM) is inactive: 0.326.
Consider `C[C@@H](NC(=O)[C@@H](CCCNC(=N)N)NC(=O)C(c1ccccc1)c1ccccc1)c1ccc(O)cc1`, for which the TEAD-luciferase reporter activity (compound concentration: 200 nM) was inactive: -2.37, the TEAD-luciferase reporter activity (compound concentration: 2 uM) is inactive: 0.0416 and the TEAD-luciferase reporter activity (compound concentration: 10 uM) was inactive: -0.493.
For the compound `Nc1nccc(-c2c(-c3ccc(F)cc3)ncn2C2CCNCC2)n1`, the TEAD-luciferase reporter activity (compound concentration: 200 nM) was inactive: -1.26, the TEAD-luciferase reporter activity (compound concentration: 2 uM) is inactive: -2.26 and the TEAD-luciferase reporter activity (compound concentration: 10 uM) was inactive: -0.779.
